Laboratory results taken from PubChem BioAssay AID2685 (National Center for Advancing Translational Sciences (NCATS), 2010).
This is one part of the list. Shown are side measurements of this screen, not its main read-out; they come without a call. Most of these compounds were active or inconclusive in the main read-out, so they are no random draw. Words in brackets tell the shape of the fitted curve; partial curves, single points and poor fits give uncertain potencies.

Experiment: qHTS Assay for Lipid Storage Modulators in Drosophila S3 Cells;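 for cell number change: cells counted by Cell Tracker Red CMTPX staining in the red channel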
Details: BODIPY lipid droplet fluorescence, 18-24 h; for cell number change: measured here: cell count max response, cells fed with added oleic acid
Summary of the method: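 Laser-scanning cytometry quantifies lipid droplet accumulation (500–530 nm total intensity; droplet/cell object ratio) in oleic acid-fed (400 uM added) Drosophila S3 cells treated with a concentration series. 20 uM Triacsin C defined 100% inhibition.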

[1] = measured here: cell number channel AC50, cells fed with added oleic acid
[2] = measured here: lipid fluorescence (Fed channel) AC50, cells fed with added oleic acid

Structure (SMILES) | cell number change | AC50 [1] | AC50 [2]
COc1cc(/C=C/C(=O)OCN2C(=O)c3ccccc3C2=O)ccc1OC(F)F | -5.38% | 0.00411 µM [falling, full curve, poor fit] | –
COc1ccc(C(=O)NNC(=O)CN2CCC(n3nnc4cc(C)ccc43)CC2)cc1 | 0.142% | – | 2.06 µM [rising, partial curve, poor fit]
O=C(Nc1nc(=O)c2ccccc2s1)c1ccccc1 | – | 0.206 µM [rising, full curve] | –
CCSc1ncnc2c1sc1nc(-c3ccco3)c3c(c12)CC(C)(C)OC3 | 33.1% | 4.61 µM [rising, full curve, poor fit] | –
CS(=O)(=O)N1CCN(c2ccc(NC(=O)c3ccc(Br)o3)cc2)CC1 | 22.9% | – | 4.61 µM [falling, partial curve]
Nc1ccc(CC2SC(=O)NC2=O)cc1 (stereo unspecified) | -25.4% | 1.64 µM [falling, full curve, poor fit] | 23.1 µM [falling, single point]
COc1ccc(CCNCc2c(-c3ccccc3)n(C)c3ccccc23)cc1 | -13.7% | – | –
CCCCCn1c(NCc2ccco2)nc2ccccc21 | 3.68% | – | 29.1 µM [rising, single point]
CNc1snc(C)c1C(=O)OC(C)C(=O)Nc1ccccc1 (stereo unspecified) | 35.5% | 29.1 µM [rising, single point] | 18.4 µM [rising, partial curve]
COc1ccc(CN(C)C(=O)c2ccc(NS(=O)(=O)c3ccc4[nH]c(=O)[nH]c4c3)cc2)c(OC)c1 | 6.52% | – | 0.651 µM [falling, single point]
O=C(/C=C1\C(=O)Nc2ccccc21)/C=C1\C(=O)Nc2ccccc21 | -64.8% | 7.31 µM [falling, partial curve] | 5.8 µM [falling, partial curve]
Cc1oc2nc(SCC(=O)N3CCCCC3)nc(N)c2c1C | 94.5% | 29.1 µM [rising, single point] | 0.651 µM [rising, full curve]
Cc1cc(C)c(NC(=O)CNC(=O)COC(=O)C2CCN(c3ccc(C(F)(F)F)cn3)CC2)c(C)c1 | 20.8% | – | 0.517 µM [rising, full curve]
COc1ccc(C(=O)NN(C)c2nc(-c3ccccc3)nnc2C(F)(F)F)cc1 | -7.81% | 0.184 µM [falling, single point] | –
O=C(/C=C/c1ccc([N+](=O)[O-])cc1)OCC(=O)N1c2ccccc2Sc2ccccc21 | -32.9% | 20.6 µM [falling, single point] | 0.116 µM [falling, full curve, poor fit]
O=C(O)CCn1c(-c2ccccn2)nc2ccccc21 | -10.6% | – | 20.6 µM [rising, single point]
COc1ccc(/C=C/C(=O)Nc2ccccc2C(=O)NCC(c2ccc(OC)cc2)N(C)C)cc1 (stereo unspecified) | 9.13% | – | 29.1 µM [rising, single point]
O/N=C(/Cc1ccccn1)c1ccccc1 | – | – | 29.1 µM [rising, single point]
O=C(Oc1ccc(Cl)cc1)c1ccc(COC(=O)c2cnccn2)cc1 | -85.7% | 4.61 µM [falling, partial curve] | 18.4 µM [falling, partial curve]

Structure (SMILES) | cell number change | AC50 [1] | AC50 [2]
Cc1ccccc1-n1c(SCC(=O)c2cc(C)n(C)c2C)nnc1-c1ccncc1 | -23.8% | – | 1.46 µM [rising, full curve, poor fit]
CC1(C)CC(=O)C(C=NCC2CCCO2)=C(O)C1 (stereo unspecified) | -4.15% | – | –
O=C(CN1C(=O)CCC1=O)Nc1nc(-c2ccc3ccccc3c2)cs1 | -39.8% | 20.6 µM [falling, single point] | 23.1 µM [falling, single point]
COc1ccc(COCC(O)CN2CCCC(C(F)(F)F)C2)cc1 (stereo unspecified) | -18.8% | – | 29.1 µM [falling, single point]
CCCNC(=O)N1CCC(Cc2ccccc2)CC1 | -3.29% | – | 1.78 µM [falling, partial curve]
CCN(CC)C(=O)c1cc(S(=O)(=O)N2CCCCC2)c[nH]1 | 26.3% | 2.06 µM [rising, partial curve, poor fit] | –
COc1cccc(C(=O)Cn2c(=N)n(C)c3ccccc32)c1 | 3.25% | 5.17 µM [rising, single point] | 29.1 µM [rising, partial curve]
CCOC(=O)c1c(-c2ccccc2)c(C(C)=O)c(=O)n(C)c1C | 11% | – | –
Brc1ccc(/C=N/N2CCN(C3c4ccccc4-c4ccccc43)CC2)s1 | – | 2.06 µM [rising, single point] | 2.06 µM [rising, single point]
CC(C)(C)OC(=O)COc1cc(OCC(=O)OC(C)(C)C)c2c(=O)cc(-c3ccccc3)oc2c1 | -41% | 25.9 µM [falling, single point] | 25.9 µM [falling, single point]
CC(=O)c1ccc(-c2ccc(C(=O)N(C)c3c(N)n(Cc4ccccc4)c(=O)[nH]c3=O)o2)cc1 | 11% | – | 29.1 µM [falling, single point]
CCC(=O)Nc1cccc(-c2ccc(N3CCN(C)CC3)nn2)c1 | -56.3% | 29.1 µM [falling, single point] | –
COc1ccccc1N1CCN(S(=O)(=O)c2c(C)[nH]c(C)c2C(=O)N2CCCC2)CC1 | -38.3% | 32.6 µM [falling, single point] | –
COc1ccc(OCC(=O)N/N=C/c2cccn2-c2cccc(C(=O)O)c2)cc1 | 6.5% | – | –
O=C(Nc1cccc(Br)c1)c1ccn[nH]1 | -30.8% | – | 18.4 µM [falling, partial curve]
O=[N+]([O-])c1ccc(O)c(/C=N/Nc2ccccn2)c1 | -35.9% | 11.6 µM [falling, partial curve] | 13 µM [falling, partial curve]
O=C(O)c1cc(S(=O)(=O)NC23CC4CC(CC(C4)C2)C3)ccc1Cl | -28% | 0.00461 µM [falling, full curve] | –
CCC(C)c1ccc(NC(=O)COc2c(F)c(F)c(C(F)(F)F)c(F)c2F)cc1 (stereo unspecified) | -58.2% | 13 µM [falling, partial curve] | 14.6 µM [falling, partial curve]
CCOC(=O)c1[nH]c2ccccc2c1N=CN(CC)CC | 4% | – | 13 µM [falling, partial curve]

Structure (SMILES) | cell number change | AC50 [1] | AC50 [2]
CCOC(=O)CCCCC(=O)c1[nH]c(=O)[nH]c1CSCCO | -15.4% | – | 0.146 µM [falling, full curve, poor fit]
COc1ccc(-c2ccc3c(c2)S(=O)(=O)c2cccc(C(=O)NC4CCCC4)c2C3=O)cc1OC | -32.5% | 29.1 µM [falling, single point] | 2.31 µM [rising, partial curve]
C=CCOc1ccccc1CN(C(=O)CCl)c1ccc2c(c1)OCO2 | – | – | 8.2 µM [falling, partial curve]
CCN1CCN(Cc2ccc(NC(=O)c3cc(NC(=O)c4cc(C)on4)cc(OC)c3)cc2C(F)(F)F)CC1 | 10% | – | –
COc1ccc(N(CC(=O)Nc2ccc(F)c(Cl)c2)S(=O)(=O)c2c(C)noc2C)cc1 | 203% | 14.6 µM [rising, partial curve] | 16.4 µM [rising, partial curve]
O=C(O)CN1C(=O)C(=O)N(Cc2ccc(Cl)cc2Cl)C1=O | 25.9% | – | –
Cc1ccc(S(=O)(=O)c2nc(-c3ccco3)oc2NCC2CCCO2)cc1 (stereo unspecified) | -13.7% | – | 6.51 µM [rising, single point]
CC(=O)c1ccccc1NS(=O)(=O)c1c(C)nn(-c2ccccc2)c1C | – | 0.731 µM [rising, partial curve] | –
CN1CCN(c2ccc(NC(=S)NC(=O)c3cccc4ccccc34)cc2)CC1 | 1.19% | 0.0366 µM [falling, full curve, poor fit] | 2.31 µM [rising, full curve, poor fit]
O=C(NCCc1ccc2c(c1)OCCO2)c1cc(F)cc(F)c1 | -17% | – | 20.6 µM [falling, partial curve, poor fit]
O=C(Nc1ccccc1)N1CCCN(Cc2c(F)cccc2Cl)CC1 | -47.6% | 16.4 µM [falling, single point] | 18.4 µM [falling, single point]
CC1CCN(C(C)C(=O)Nc2cc(S(=O)(=O)N3CCCCC3)ccc2Cl)CC1 (stereo unspecified) | 8.33% | – | –
COc1cc(C(C(=O)NC2CCCC2)N(Cc2ccccc2)C(=O)c2snc(C(N)=O)c2N)ccc1O (stereo unspecified) | 24.4% | – | 0.103 µM [rising, partial curve, poor fit]
Cc1ccc(NC(=O)CN2CCCCCC2)c(Br)c1 | -20.7% | – | –
Cc1cc2c(cc(C(=O)OC(C(=O)NCC3CCCO3)C(C)C)n2C)o1 (stereo unspecified) | -31.5% | 29.1 µM [falling, single point] | 8.2 µM [falling, partial curve]
O=C(O)CNc1ccccc1C(=O)O | -6.83% | – | 6.51 µM [falling, single point]
CCC(NS(=O)(=O)c1ccc(OC)cc1)C(=O)NCCc1ccccc1 (stereo unspecified) | -25.8% | – | 29.1 µM [falling, single point]
O=C(Nc1nnc(C2CCCO2)s1)c1ccc(Br)cc1 (stereo unspecified) | 0.809% | – | 29.1 µM [falling, single point]

As entered above.
Cc1cc2c(cc(C(=O)OC(C(=O)NCC3CCCO3)C(C)C)n2C)o1 (stereo unspecified) – AC50 [2]: 8.2 µM [falling, partial curve]
COc1ccc(C(=O)NN(C)c2nc(-c3ccccc3)nnc2C(F)(F)F)cc1 – AC50 [1]: 0.184 µM [falling, single point]
O=C(O)CNc1ccccc1C(=O)O – AC50 [2]: 6.51 µM [falling, single point]
CC1(C)CC(=O)C(C=NCC2CCCO2)=C(O)C1 (stereo unspecified) – cell number change: -4.15%
